Experimental data reported in PubChem BioAssay AID1117319 (Southern Research Institute, 2015).
Among all 260,000 compounds or so, about 1,500 (0.58%) were called active. This list was built around the results that the source calls inconclusive (neither active nor inactive); the mix of calls is not that of the screen.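 The calls were made as follows: active = inhibition above a set limit at one or more doses, reproduced on every date tested; inconclusive = results disagree between test dates, or hit never tested in dose response; inactive = the rest.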

The chains behind the UniProt entries cited, without tags or fusion partners. Where a name states a change or a piece, a line headed by the entry shows the natural chain unless it says otherwise.
UniProt P69720: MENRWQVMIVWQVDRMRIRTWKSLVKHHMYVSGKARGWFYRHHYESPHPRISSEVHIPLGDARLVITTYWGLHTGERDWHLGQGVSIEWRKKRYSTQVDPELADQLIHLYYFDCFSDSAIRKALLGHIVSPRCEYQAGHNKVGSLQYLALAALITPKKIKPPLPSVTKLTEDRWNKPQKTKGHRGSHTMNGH
UniProt P69721: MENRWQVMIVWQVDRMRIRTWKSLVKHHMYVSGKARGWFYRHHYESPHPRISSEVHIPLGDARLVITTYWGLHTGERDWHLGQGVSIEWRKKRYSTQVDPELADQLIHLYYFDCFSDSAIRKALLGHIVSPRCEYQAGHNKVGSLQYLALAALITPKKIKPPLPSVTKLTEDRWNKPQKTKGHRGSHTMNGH
UniProt P69722: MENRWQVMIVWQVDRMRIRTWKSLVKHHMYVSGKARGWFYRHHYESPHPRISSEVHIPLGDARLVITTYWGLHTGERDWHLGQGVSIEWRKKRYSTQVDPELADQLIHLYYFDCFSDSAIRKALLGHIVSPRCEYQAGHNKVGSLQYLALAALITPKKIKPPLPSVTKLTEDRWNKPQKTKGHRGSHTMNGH
UniProt P69723: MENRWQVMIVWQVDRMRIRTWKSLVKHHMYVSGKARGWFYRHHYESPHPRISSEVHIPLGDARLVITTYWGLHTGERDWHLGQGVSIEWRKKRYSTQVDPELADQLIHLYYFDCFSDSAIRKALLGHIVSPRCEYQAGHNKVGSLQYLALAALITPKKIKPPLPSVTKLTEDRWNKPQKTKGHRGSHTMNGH
UniProt Q9HC16: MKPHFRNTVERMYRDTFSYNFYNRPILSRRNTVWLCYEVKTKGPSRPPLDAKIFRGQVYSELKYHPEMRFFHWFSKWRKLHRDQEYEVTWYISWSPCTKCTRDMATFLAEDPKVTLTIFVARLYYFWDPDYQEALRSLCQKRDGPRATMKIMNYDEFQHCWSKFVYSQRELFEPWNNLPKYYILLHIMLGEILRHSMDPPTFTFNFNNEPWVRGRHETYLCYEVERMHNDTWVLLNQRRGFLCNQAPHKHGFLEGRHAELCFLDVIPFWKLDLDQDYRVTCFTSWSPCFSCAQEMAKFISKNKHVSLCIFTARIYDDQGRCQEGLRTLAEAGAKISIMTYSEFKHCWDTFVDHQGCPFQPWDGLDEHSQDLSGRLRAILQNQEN

What follows are compounds tested against Virion infectivity factor (Human immunodeficiency virus type 1 group M subtype B (isolate BH10)) + Virion infectivity factor (Human immunodeficiency virus type 1 group M subtype B (isolate BRU/LAI)) + Virion infectivity factor (Human immunodeficiency virus type 1 group M subtype B (isolate PCV12)) + Virion infectivity factor (Human immunodeficiency virus type 1 group M subtype B (isolate HXB2)) + DNA dC->dU-editing enzyme APOBEC-3G (Homo sapiens) (UniProt P69720+P69721+P69722+P69723+Q9HC16) (assay: inhibitors of Vif binding to APOBEC3G peptide, primary screen, biochemical, TR-FRET, GST-Vif 1-94, biotin-A3G peptide, dose response retest (AID 1117319;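 also: Vif residues 1-94 fused to GST binding biotinylated APOBEC3G peptide 110-148; 0% = full assay without inhibitor and 100% = GST in place of GST-Vif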)). Details: stronger effect = higher value.

Compound | inhibition
O=C(c1ccco1)N1CCN(C(=O)C2CC(c3ccc(Cl)cc3)=NO2)CC1 (stereo not drawn) | inconclusive: 59.4%
CCn1cc(CN2CCCC(C(=O)c3ccc(-c4ccccc4)c(F)c3)C2)cn1 (stereo not drawn) | inconclusive: 44.6%
CCc1cc(=O)oc2cc(C)c(CN3CCCCC3)c(O)c12 | inconclusive: 55.1%
CN1CCN(C(=O)c2ccc(CN3CCOCC3)cc2)CC1 | inactive: -3.34%
COc1ccc(O)c(/C=N/N2CCOCC2)c1 | inconclusive: 54.8%
CC1(C)Cc2cccc(OCC(=O)O)c2O1 | inconclusive: 45.2%
O=C1C(Cl)=C(N2CCN(c3ccccc3[N+](=O)[O-])CC2)C(=O)c2ccccc21 | inconclusive: 38.3%
CC(=O)N1CCN(C(=O)COC(=O)COc2c(C)cc(C)cc2C)CC1 | inconclusive: 62.9%
CCN=C(Nc1cccc(F)c1)SC1CC(=O)N(c2ccc(OC)cc2)C1=O (stereo not drawn) | inconclusive: 44%
CCc1c(C)nc(SCC(=O)N2CCc3ccccc32)[nH]c1=O | inconclusive: 41.1%
COc1ccc(N(CC(=O)N2CCCC(C)C2)S(=O)(=O)c2c(C)nn(C)c2C)cc1 (stereo not drawn) | inconclusive: 53.8%
Cc1cc(N2CCOCC2)nc(-c2ccc(Br)cc2)n1 | inconclusive: 34.3%
NS(=O)(=O)c1ccc(CNC(=O)C2(c3ccc(Cl)cc3)CC2)cc1 | inconclusive: 34.4%
CCOC(=O)C(CC)(CCC(=O)OC)c1csc(Nc2ccccc2O)n1 (stereo not drawn) | inconclusive: 45.5%
O=C(COc1ccc(Br)cc1Cl)NNC(=O)c1ccccc1 | inconclusive: 46.3%
COC(=O)Sc1nc(N2CCOCC2)c2c(c1C#N)CC(C)(C)OC2 | inconclusive: 37.9%
COc1ccccc1-c1nnc(SCC(=O)NCc2ccco2)n1N | inconclusive: 40.7%
CCN(CCCNC(=O)C1CCN(S(=O)(=O)CC)CC1)c1cccc(C)c1 | inconclusive: 56%
O=C(Cn1cncn1)N/N=C/c1c2ccccc2cc2ccccc12 | inconclusive: 45.3%
Cc1oc(-c2ccccc2F)nc1CS(=O)CC(=O)NCc1ccccc1 (stereo not drawn) | inactive: -9.75%

Nothing new here: entries from further up.
Compound | inhibition
O=C1C(Cl)=C(N2CCN(c3ccccc3[N+](=O)[O-])CC2)C(=O)c2ccccc21 | inconclusive: 38.3%
CC(=O)N1CCN(C(=O)COC(=O)COc2c(C)cc(C)cc2C)CC1 | inconclusive: 62.9%
CCN=C(Nc1cccc(F)c1)SC1CC(=O)N(c2ccc(OC)cc2)C1=O (stereo not drawn) | inconclusive: 44%

Further entries:

Compound | inhibition
CC(=O)N1CCc2cc(Br)cc(S(=O)(=O)NCc3ccccn3)c21 | inconclusive: 54.5%
Cc1cccc(N2CCN(C(=O)c3ccc4nc[nH]c4c3)CC2)c1C | inconclusive: 37.9%
COc1ccc2c([N+](=O)[O-])c(Cl)[nH]c2c1 | inactive: 21.2%
COC(=O)c1sccc1NC(=O)Nc1cc(C)ccc1C | inconclusive: 52%
COc1ccc(Nc2nc(C)cc(=O)[nH]2)c(OC)c1 | inactive: 10.4%
CCOc1ccccc1NC(=O)c1ccc2nccnc2c1 | inconclusive: 53.8%
COc1ccc(-c2nnc3n2N=C(C)CS3)cc1OC | inconclusive: 46.1%
O=C(c1ccco1)N(CCC(c1ccccc1)c1ccco1)Cc1ccco1 (stereo not drawn) | inconclusive: 37.9%
Cc1cc(=O)[nH]n(CCO)c1=O | inconclusive: 42%
c1ccc(-c2nnc(SCc3nc4ccccc4[nH]3)n2Cc2ccco2)cc1 | inconclusive: 42.6%
O=C(NP(=O)(N1CCCC1)N1CCCC1)C1=C(N2CCOCC2)/C(=C/c2cccc([N+](=O)[O-])c2)CC1 | inconclusive: 37.8%
COCCn1cc(C(=O)N2CCCC(C)C2)c2c3ccccc3n(C)c2c1=O (stereo not drawn) | inconclusive: 36.9%
CCOc1ccc(Cc2nnc(SCC(=O)c3ccc(OC)cc3)o2)cc1 | inconclusive: 33.2%
N=c1c(C(=O)NCc2ccco2)cc2c(=O)n3ccccc3nc2n1CCc1ccccc1 | inactive: 19.6%
CCN(C(=O)COC(=O)/C=C/c1cnc2ccccc2n1)c1ccccc1 | inactive: -2.53%
CCNC(=S)N1CCN=C1Nc1nc(C)cc(C)n1 | inconclusive: 35.2%
COC(=O)CC1COc2ccccc2N1C(=O)c1ccc(C(C)(C)C)cc1 (stereo not drawn) | inconclusive: 36.4%
O=C1/C(=C\c2ccc(Br)o2)SC(=Nc2ccccc2)N1c1ccccc1 | inconclusive: 39.4%
Cc1cc(NC(=O)CCC(=O)N(Cc2cccs2)C(C(=O)NC2CCCC2)c2ccncc2)no1 (stereo not drawn) | inconclusive: 45.6%
COc1ccc(/C=C(/NC(=O)c2ccccc2Cl)C(=O)O)cc1 | inconclusive: 51.5%

Compound | inhibition
COc1cccc(CN2CCNC(=O)C2CC(=O)NCc2cn3ccc(C)cc3n2)c1OC (stereo not drawn) | inconclusive: 37.5%
CCOC(=O)c1c(-c2ccc(C)o2)csc1N | inconclusive: 31.1%
COc1ccc(/C=N/NC(=O)Cn2cc(C(F)(F)F)ccc2=O)cc1 | inconclusive: 49.9%
COc1ccc(Cl)cc1N(CC(=O)N1CCC(C)CC1)S(C)(=O)=O | inconclusive: 32.4%
CCCCC12CN3CC(C)(CN(C1)C31C(=O)N(C)c3ccc(C)cc31)C2=O (stereo not drawn) | inactive: 3.69%
N#C/C(=C\Nc1ccc2cn[nH]c2c1)c1nc(-c2ccccc2)cs1 | inconclusive: 33.2%
COC(=O)CC1C(=O)NCCN1C(=S)NC(=O)c1ccccc1[N+](=O)[O-] (stereo not drawn) | inactive: 13.4%
CCc1ccc(C2CC(c3ccc(C)cc3)Nc3nc(N)nn32)cc1 (stereo not drawn) | inconclusive: 24.1%
COc1ccc(CCNCC(=O)Nc2ccc(C)c(S(=O)(=O)N(C)C)c2)cc1 | inconclusive: 38%
CC(=O)N1CCN(c2ccc(NCc3cccs3)cc2)CC1 | inconclusive: 39.8%
Cc1ccc(C(=O)OCC(=O)NCc2ccco2)cc1C | inconclusive: 44.1%
COC(=O)c1cc(Br)c(=O)n(-c2nccs2)c1 | inconclusive: 49.2%
COc1ccccc1C(=O)Nc1ccc(S(=O)(=O)N2CCc3ccccc32)cc1 | inconclusive: 60.1%
CN(C)c1ccc(C(=O)c2ccc(O)cc2O)cc1 | inactive: -0.42%
CN1OC(Cn2cc(C#N)c(=O)n(C)c2=O)CC1c1ccccc1 (stereo not drawn) | inconclusive: 49.9%
C/C(=C\C(=O)Nc1cscc1C)C(=O)O | inconclusive: 49%
COc1ccc(CC(=O)NNc2ncnc3c2cnn3Cc2ccccc2)cc1OC | inconclusive: 40%
O=C(O)/C=C/c1cccc(NC(=O)c2ccc(Cl)cc2)c1 | inconclusive: 58.4%
